{"source": "PubChem BioAssay AID504808 (Drosophila RNAi Screening Center, 2011)", "screen": "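Genes whose loss lifts activity of an E2F-responsive reporter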 (primary screen)", "cell system": "Drosophila S2 cells", "reagents": "long dsRNA against Drosophila genes", "read-out": "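Firefly luciferase driven by E2F sites, normalised to Renilla luciferase on the same minimal promoter, measured by plate reader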", "scale": "E2F firefly: higher = more E2F reporter activity; Renilla normaliser: higher = more normaliser reporter signal", "call rule": "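a knock-down counted as active when the firefly/Renilla E2F signal rose above 50%, a threshold chosen arbitrarily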", "note": "The screen tested about 21,000 reagents; this is an unselected part of those with a known target gene and a result. Of all reagents, 18 (0.084%) were called active. 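Raw counts without plate normalisation, one of two replicates; the ratio scores behind the calls were not deposited.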 A plus sign joins genes that one reagent is predicted to hit. Not given: the amount of reagent, the time to read-out."}
{"gene":"Ir60b (Ionotropic receptor 60b)","amplicon":"DRSC04217","E2F firefly, rep 1":1.10e5,"Renilla normaliser, rep 1":4875,"Outcome":"inactive"}
{"gene":"Ubc7 (Ubiquitin conjugating enzyme 7)","amplicon":"DRSC20299","E2F firefly, rep 1":1.61e5,"Renilla normaliser, rep 1":6848,"Outcome":"inactive"}
{"gene":"Aos1 (Activator of SUMO 1)","amplicon":"DRSC14113","E2F firefly, rep 1":1.59e5,"Renilla normaliser, rep 1":6693,"Outcome":"inactive"}
{"gene":"CG6052","amplicon":"DRSC10574","E2F firefly, rep 1":1.60e5,"Renilla normaliser, rep 1":7155,"Outcome":"inactive"}
{"gene":"Nepl5 (Neprilysin-like 5)","amplicon":"DRSC03241","E2F firefly, rep 1":93870,"Renilla normaliser, rep 1":3681,"Outcome":"inactive"}

2 consecutive records from above:
{"gene":"Aos1 (Activator of SUMO 1)","amplicon":"DRSC14113","E2F firefly, rep 1":1.59e5,"Renilla normaliser, rep 1":6693,"Outcome":"inactive"}
{"gene":"CG6052","amplicon":"DRSC10574","E2F firefly, rep 1":1.60e5,"Renilla normaliser, rep 1":7155,"Outcome":"inactive"}

Additional reagents follow:
{"gene":"CG33981 + fab1","amplicon":"DRSC07412","E2F firefly, rep 1":70510,"Renilla normaliser, rep 1":3640,"Outcome":"inactive"}
{"gene":"CG7239","amplicon":"DRSC03038","E2F firefly, rep 1":68368,"Renilla normaliser, rep 1":3272,"Outcome":"inactive"}
{"gene":"Pngl (PNGase-like)","amplicon":"DRSC04914","E2F firefly, rep 1":1.11e5,"Renilla normaliser, rep 1":4792,"Outcome":"inactive"}
{"gene":"CG15330","amplicon":"DRSC18014","E2F firefly, rep 1":1.05e5,"Renilla normaliser, rep 1":5180,"Outcome":"inactive"}
{"gene":"unc-45 (uncoordinated 45)","amplicon":"DRSC15449","E2F firefly, rep 1":1.40e5,"Renilla normaliser, rep 1":7295,"Outcome":"inactive"}
{"gene":"adp (adipose)","amplicon":"DRSC06916","E2F firefly, rep 1":74130,"Renilla normaliser, rep 1":3374,"Outcome":"inactive"}
{"gene":"Dg (Dystroglycan)","amplicon":"DRSC06718","E2F firefly, rep 1":1.51e5,"Renilla normaliser, rep 1":5785,"Outcome":"inactive"}
